Data as given in publication PMC7299341.

Target: Warts with an N-terminal Myc tag (Myc-Wts) (Drosophila melanogaster)
Test: co-IP; S2 cells co-transfected with the tagged constructs (pUAST vectors with ubiquitin-Gal4); cell extracts immunoprecipitated with anti-Flag or anti-Myc antibodies, Western blot

B1: Yorkie (Yki) (protein, UniProt Q45VV3 1-395)
chain: MLTTMSASSNTNSLIEKEIDDEDMLSPIKSNNLVVRVNQDTDDNLQALFDSVLNPGDAKRPLQLPLRMRKLPNSFFTPPAPSHSRANSADSTYDAGSQSSINIGNKASIVQQPDGQSPIAAIPQLQIQPSPQHSRLAIHHSRARSSPASLQQNYNVRARSDAAAANNPNANPSSQQQPAGPTFPENSAQEFPSGAPASSAIDLDAMNTCMSQDIPMSMQTVHKKQRSYDVISPIQLNRQLGALPPGWEQAKTNDGQIYYLNHTTKSTQWEDPRIQYRQQQQILMAERIKQNDVLQTTKQTTTSTIANNLGPLPDGWEQAVTESGDLYFINHIDRTTSWNDPRMQSGLSVLDCPDNLVSSLQIEDNLCSNLFNDAQAIVNPPSSHKPDDLEWYKIN
  binding: binds

No constants are given. Whether binding was seen depends on the method and setting. Binding seen in cells or lysates may run through a third protein. A result given as binding can be weak or reduced; the word gives no strength.
